Ten molecules from patent US20250223358A1 can be followed below.

By UniProt entry, the sequences of proteins in these tests, tags left out. Where a name states a change or a piece, a line headed by the entry shows the natural chain unless it says otherwise.
UniProt P07766: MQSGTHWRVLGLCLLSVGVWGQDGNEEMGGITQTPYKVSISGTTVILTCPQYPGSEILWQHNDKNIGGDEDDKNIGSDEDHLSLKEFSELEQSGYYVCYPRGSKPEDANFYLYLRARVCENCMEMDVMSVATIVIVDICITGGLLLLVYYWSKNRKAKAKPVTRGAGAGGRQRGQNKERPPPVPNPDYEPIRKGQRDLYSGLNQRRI
UniProt P04234: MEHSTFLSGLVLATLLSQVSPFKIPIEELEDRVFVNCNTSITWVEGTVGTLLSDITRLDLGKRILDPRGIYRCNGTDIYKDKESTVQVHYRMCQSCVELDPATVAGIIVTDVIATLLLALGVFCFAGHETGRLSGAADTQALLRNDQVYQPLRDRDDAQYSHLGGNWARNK
UniProt P09693: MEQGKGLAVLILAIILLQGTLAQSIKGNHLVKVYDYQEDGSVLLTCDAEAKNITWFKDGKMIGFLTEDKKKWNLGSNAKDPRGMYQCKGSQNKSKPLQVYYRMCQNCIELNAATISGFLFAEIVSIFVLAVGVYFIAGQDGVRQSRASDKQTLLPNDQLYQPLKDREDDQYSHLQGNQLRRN
UniProt Q95LI5: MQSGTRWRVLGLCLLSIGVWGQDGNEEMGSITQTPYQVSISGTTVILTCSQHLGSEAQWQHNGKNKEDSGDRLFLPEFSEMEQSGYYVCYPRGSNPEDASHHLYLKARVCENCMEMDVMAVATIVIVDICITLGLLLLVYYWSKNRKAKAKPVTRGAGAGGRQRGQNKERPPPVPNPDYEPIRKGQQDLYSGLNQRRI
UniProt Q95LI8: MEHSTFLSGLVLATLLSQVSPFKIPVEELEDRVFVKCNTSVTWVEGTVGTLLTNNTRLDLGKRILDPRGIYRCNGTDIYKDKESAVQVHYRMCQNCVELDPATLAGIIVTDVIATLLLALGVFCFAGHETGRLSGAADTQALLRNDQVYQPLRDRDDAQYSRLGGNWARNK
UniProt Q95LI7: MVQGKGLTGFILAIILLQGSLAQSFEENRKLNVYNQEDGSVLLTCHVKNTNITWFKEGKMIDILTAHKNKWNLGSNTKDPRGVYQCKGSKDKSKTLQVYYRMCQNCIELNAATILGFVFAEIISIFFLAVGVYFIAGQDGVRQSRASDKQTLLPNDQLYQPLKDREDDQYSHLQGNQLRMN

The target in test [1] is T1, human CD3 (human) (UniProt P07766+P04234+P09693). Put plainly: FACS on Jurkat cells.
Test [2] deals with T2, cynomolgus CD3 (cynomolgus (Macaca fascicularis)) (UniProt Q95LI5+Q95LI8+Q95LI7). Put plainly: FACS on 293F-cynoCD3mix cells.
The target in test [3] is T1, human CD3 (human). As to the kind of experiment: FACS on 293T-hCD3mix cells.
The target of test [4] is T2, cynomolgus CD3 (cynomolgus (Macaca fascicularis)). As to the kind of experiment: FACS on 293T-cynoCD3mix cells.
For test [5] the target is unchanged. Put plainly: binding test of N55 deamidation-site mutants (hu147E2-L1H3a; FACS data given for 293T-cynoCD3mix).
Test [6] shares this target. As to the kind of experiment: binding test of N55 deamidation-site mutants (hu147E2-L1H3b; FACS data given for 293T-cynoCD3mix).

These are yes or no findings as the source states them, for the method shown. Some results given as binding are weak or reduced against the parent protein; the word gives no strength.

B1: 124E3D6 (antibody, V domains shown)
VH: QVQLQQPGTELVKPGASVKLSCKASGYTFTSYWMHWVKQRPGQGLEWIGNINPSNGDTNYNEKFKSKATLTVDKSSSTAYMQLSSLTSEDSAVYYCARDRSSQYYFDYWGQGTTLTVSS
VL: DIVMSQSPSSLAVSAGEKVTMSCKSSQSLLNSRTRKNYLAWYQQKPGQSPKLLIYWASTRESGVPDRFTGSGSGTDFTLTISSVQAEDLAVYYCKQSYNLRTFGGGTKLEIK
On to B1, for which the binding entry (in the test with human CD3 (human) [1]; in test [2]) was “binds” in each case.

B2: 147C6F3 (antibody, V domains shown)
VH: QVQLQQPGTELVKPGASVKLSCKASGYTFDSYWMHWVKQRPGQGLEWIGNLNPSNGEINYNEKFKHKATLTVDKSSSTAYMQLSSLTSEDSAVYYCSRDRSSQYYFDYWGQGTTLTVSS
VL: DIVMSQSPSSLAVSAGEKVTLSCKSSQSLLNSRTRKNYLAWYQQKSGQSPKLLMYWASTRESGVPDRFTGSGSGTDFTLTITNVQAEDLAVYYCKQSYILRTFGGGTKLEIK
As for B2, the binding result (in the test with human CD3 (human) [1]; in test [2]) was “binds” throughout.

B3: 127E2D3 (antibody, V domains shown)
VH: QVQLQQPGTELVKPGASVKLSCKASGYTFTSYWMHWVKQRPGEGLEWIGNIYPGSSSINYNEKFKSKATLTVDKSSSTAYMQLSSLTSEDSAVYYCARDRSSQYYFDYWGQGTTLTVSS
VL: DIVMSQSPSSLAVSAGEKVTMSCKSSQSLLNSRTRKNYLAWYQQKPGQSPKLLIYWASTRESGVPDRFTGSGSGTDFTLTISSVQAEDLAVYYCTQSYNLRTFGGGTKLEIK
On to B3, for which the binding entry (with human CD3 (human) [1]; in test [2]) was “binds” each time.

B4: 140D2B10 (antibody, V domains shown)
VH: QVQLQQPGTELVKPGASVKLSCKASGYTFTSYWMHWVKQRPGQGLEWIGNINPSNGESNYNEKFKSKATLTVDKSSSTAYMQLSSLTSEDYAVYYCARDRSSQYYFDYWGQGTTLTVSS
VL: DIVMSQSPSSLAVSAGEKVTMSCKSSQSLLNSRTRKNYLAWYQQKPGQSPKLLIYWASTRESGVPDRFTGSGSGTDFTLTISSVQAEDLAVYYCKQSYTLRTFGGGTKLEIK
Regarding B4, the binding entry (with human CD3 (human) [1]; in test [2]) was “binds” each time.

B5: 126A11A4 (antibody, V domains shown)
VH: QVQLQQPGTELVKPGASVKLSCKASGYTFTSYWMHWVKQRPEQGLEWIGNINPSNGDTNYNEKFKSKATLTVDKASNTAYMQLSSLTSEDSAVYYCGRDRSSQYYFDYWGQGTTLTVSS
VL: DIVMSQSPSSLAVSAGEKVTMSCKSSQSLLNSRTRKNYLAWYQQKPGQSPKLLIYWASTRESGVPDRFTGSGSGTDFTLTISSVQAEDLAVYFCKQSFILRTFGGGTKLEIK
As to B5, the binding result (with human CD3 (human) [1]; in test [2]) was “binds” each time.

B6: 133B4C7 (antibody, V domains shown)
VH: QVQLQQPGTELVKPGASVKLSCKASGYTFTSYWMHWVKQRPGQGLEWIGNINPSNGDTNFNEKFKSKATLTVDKSSSTAYMQLSSLTSEDSAVYYCARDRSSQYYFDYWGQGTTLTVSS
VL: DIVMSQSPSSLAVSAGEKVTMSCNSSQSLLNSRTRKNYLAWYQQKPGQSPKLLIYWASTRESGVPDRFTGSGSGTDFTLTISSVQAEDLAVYYCKQSYTLRTFGGGTKLEIK
Turning to B6, the binding entry (with human CD3 (human) [1]; in test [2]) was “binds” throughout.

B7: 147E11E2 (antibody, V domains shown)
VH: QVQLQQPGTELVKPGTSVKLSCKASGYTFTSYWMHWVKQRPGQGLEWIGNINPSNGATNYNEKFKSKATLTVDKSSSTAYMQLSSLTSEDSAVYYCARDRSSQYYFDYWGQGTTLTVSS
VL: DIVMSQSPSSLAVSAGEKVTMSCKSSQSLLNSRSRKNYLAWYQQKPGQSPKLLIYWASTRESGVPDRFTGSGSGTDFTLTISSVQAEDLAVYYCTQSYTLRTFGGGTKLEIK
Consider B7, for which the binding result (with human CD3 (human) [1]; in test [2]) was “binds” in each case.

B8: 4-F12-F1-A4 (antibody, V domains shown)
VH: EVKLVESGGGLVKPGGSLKLSCAASGFTFSSYTMSWIRQTPAKRLEWVATISSGGGNTFYADSVKGRFTISRDNARNTLNLQMSSLRSEDTAMYYCARSLYYYDGTYVRKDYYAMDYWGQGSSVTVSS
VL: DIQMTQSPASLSVSVGETVTISCRASENIFSNLAWYQQKQGKSPQLLVYAATNLAEGVPSRFSGSRSGTQFSLKINSLQSEDFGSYYCQQFWGTPWTFGGGTKLEVK
In the case of B8, in the test with human CD3 (human) [3], the binding result is on record as “binds”.

B9: hu147E2-L1H3a (antibody, V domains shown)
VH: EVQLVQSGAEVKKPGSSVKVSCKASGYTFTSYWMHWVRQAPGQGLEWMGNINPSQGATNYNEKFKSRVTLTVDKSTSTAYMELSSLRSEDTAVYYCARDRSSQYYFDYWGQGTTVTVSS
VL: DIVMTQSPDSLAVSLGERATINCKSSQSLLNSRSRKNYLAWYQQKPGQPPKLLIYWASTRESGVPDRFSGSGSGTDFTLTISSLQAEDVAVYYCTQSYTLRTFGGGTKVEIK
For B9, the binding result in test [4] and in test [5] was “binds” in each case.

B10: hu147E2-L1H3b (antibody, V domains shown)
VH: EVQLVQSGAEVKKPGSSVKVSCKASGYTFTSYWMHWVRQAPGQGLEWMGNINPSSGATNYNEKFKSRVTLTVDKSTSTAYMELSSLRSEDTAVYYCARDRSSQYYFDYWGQGTTVTVSS
VL: DIVMTQSPDSLAVSLGERATINCKSSQSLLNSRSRKNYLAWYQQKPGQPPKLLIYWASTRESGVPDRFSGSGSGTDFTLTISSLQAEDVAVYYCTQSYTLRTFGGGTKVEIK
On to B10, for which the binding entry in test [4] and in test [6] was “binds” each time.
